# Laboratory results taken from PubChem BioAssay AID2685 (National Center for Advancing Translational Sciences (NCATS), 2010).
# The other results are listed elsewhere or left out. These are further read-outs of the screen, such as a control signal, another cell line or another target. No call is given for them. Compounds called inactive in the main read-out are mostly missing here. Potencies come from curve fits of mixed quality, noted in brackets.
# Assay: qHTS Assay for Lipid Storage Modulators in Drosophila S3 Cells;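 for cell number change: cells counted by Cell Tracker Red CMTPX staining in the red channel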
# Details: BODIPY lipid droplet fluorescence, 18-24 h; for cell number change: measured here: cell count max response, cells fed with added oleic acid
# Outline: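 Drosophila S3 cells loaded with oleic acid (400 uM, as added) and compounds at several concentrations; lipid droplets imaged by 488-nm laser-scanning cytometry, 500–530 nm intensity and object ratio to cell channel. Percent activity normalized to 20 uM Triacsin C.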
# [1] = measured here: lipid fluorescence (Fed channel) AC50, cells fed with added oleic acid
# [2] = measured here: cell number channel AC50, cells fed with added oleic acid
SMILES,cell number change [%],AC50 [1],AC50 [2]
Cc1cccc(OCCn2c(NC(=O)c3ccco3)nc3ccccc32)c1,-19,"29.1 µM [falling, single point]",–
CCOC(=O)c1cnc(SCC(=O)N2CCN(c3ccccc3)CC2)nc1N,–,"9.2 µM [rising, partial curve]","3.26 µM [rising, single point]"
CCOCCCNC(=O)C(NC(=O)c1ccc(NC(C)=O)cc1)c1ccc(C)cc1 (centres undefined),–,"2.06 µM [rising, single point]",–
CC(=O)Nc1cccc(/C(C)=N\NC(=O)c2ccc(Cn3nc([N+](=O)[O-])c(Cl)c3C)o2)c1,17.8,"7.31 µM [rising, partial curve]",–
O=C(COC(=O)/C=C/c1cc(Br)ccc1F)Nc1ccc2[nH]c(=O)[nH]c2c1,-50.6,"13 µM [falling, partial curve, poor fit]","23.1 µM [falling, partial curve, poor fit]"
COc1ccc(CCNC(=O)C(C)Sc2ccc(C)cc2)cc1OC (centres undefined),-0.247,"14.6 µM [falling, partial curve, poor fit]",–
COc1ccccc1C(CNC(=O)c1cccc(NS(=O)(=O)c2ccc(Br)cc2)c1)N(C)C (centres undefined),–,"6.51 µM [falling, single point]",–
Oc1ccc(C[C@@H]2CNCCN2CCCCC2CCCCC2)cc1,-30.2,–,"16.4 µM [falling, single point]"
CC(/C=C1\SC(=S)N(NS(=O)(=O)c2ccc(C)cc2)C1=O)=C\c1ccccc1,-7.35,–,"0.146 µM [falling, full curve, poor fit]"
CSc1[nH]c(=O)c(C(=O)O)cc1C#N,-3.81,"3.26 µM [falling, single point]",–
S=c1[nH]nc(-c2ccco2)n1-c1cccc2ccccc12,-61.4,–,"29.1 µM [falling, single point]"
COc1ccccc1-n1c(SCC(=O)N(C)C2CCS(=O)(=O)C2)nc2ccccc2c1=O (centres undefined),-4.09,–,–
CC1CCCC(C)N1C(=O)c1ccc(CS(=O)(=O)c2ccccc2)cc1 (centres undefined),-23.5,"25.9 µM [falling, single point]",–
CN(CCc1cnn(C)c1)Cc1nc(CC2CC2)no1,–,"0.731 µM [rising, partial curve, poor fit]",–
O=c1oc2cccnc2n1CCS(=O)(=O)c1ccc(F)cc1,-6.01,–,–
O=C(NC1CCCC1)C(c1ccsc1)N(C(=O)Cc1cccs1)c1ccccc1 (centres undefined),–,"6.51 µM [falling, single point]",–
COc1ccc(N2CCN(C(=O)c3cc(C)oc3C)CC2)cc1,19.4,"14.6 µM [rising, partial curve]",–
CC1(C)CC(=O)c2sc(NC(=O)CN3C(=O)CCC3=O)nc2C1,-78.4,"29.1 µM [falling, single point]","16.4 µM [falling, single point]"
N#Cc1cccc(CN2CCC(=O)N([C@H](CO)c3ccccc3)CC2)c1,1.29,–,–

SMILES,cell number change [%],AC50 [1],AC50 [2]
O=C1c2ccccc2NC(c2ccc(-c3cccc([N+](=O)[O-])c3)o2)N1O (centres undefined),2.5,"6.51 µM [falling, single point]",–
CN(C)S(=O)(=O)c1cccc(NC(=O)c2ccccc2OCc2ccc(F)cc2)c1,342,"35.5 µM [falling, partial curve]","29.1 µM [rising, single point]"
O=C(CSc1ccc2c(c1)OCCO2)N1CCN(c2ccccc2O)CC1,38.5,–,"3.26 µM [rising, partial curve, poor fit]"
CCOC(=O)c1cnn(-c2ccccc2)c1-c1ccccc1,–,"1.84 µM [falling, partial curve]",–
COc1cc(C(=O)NCC(=O)N/N=C/c2cccnc2)cc(OC)c1OC,-2.38,"0.58 µM [falling, single point]",–
Cc1cc(NC(=O)CSc2ccc3nnc(-c4ccc(Cl)cc4)n3n2)no1,-10.1,"0.0651 µM [rising, full curve, poor fit]",–
Cc1nc(SCc2ccccc2F)c2oc3ccccc3c2n1,21.4,"1.84 µM [rising, partial curve, poor fit]",–
COc1ccc(CNS(=O)(=O)c2ccc(-n3cnnn3)c(OC)c2)cc1,11.8,"0.206 µM [falling, single point]",–
COc1ccc(-c2noc(CN(C(=O)c3ccc4c(c3)OCO4)C(C)C)n2)cc1OC,100,–,"11.6 µM [rising, partial curve]"
CSc1nc2ccsc2c(=O)n1-c1ccccn1,-15,"0.00517 µM [falling, full curve, poor fit]",–
CC(NC(=O)c1ccccc1)C(=O)OCC(=O)c1ccc(Br)cc1 (centres undefined),24.5,"29.1 µM [rising, single point]",–
Cc1cc(C)cc(N(C(C)C(=O)NCCC2=CCCCC2)S(C)(=O)=O)c1 (centres undefined),25.9,–,"0.461 µM [rising, full curve]"
O=C(Nc1ccccn1)c1ccc(C(=O)Nc2ccccn2)cc1,-4.12,"29.1 µM [falling, single point]",–
COc1cc2c(cc1OC)CN(CC(O)c1ccccc1)CC2 (centres undefined),-14.3,"29.1 µM [rising, single point]",–
COc1cccc(CN2CCN(Cc3cc4ccccc4o3)CC2CCO)c1 (centres undefined),15,"29.1 µM [rising, single point]",–
COC(=O)CCN(C(=O)c1ccc2c(c1)OCO2)c1ccccn1,–,"0.651 µM [rising, full curve, poor fit]","2.06 µM [rising, single point]"
CCOC(=O)c1c(NC(=O)Cn2nnc(-c3ccccc3Cl)n2)sc(C)c1C,1.2,"6.51 µM [rising, single point]",–
CCN(CC)S(=O)(=O)c1cc(NC(=O)CSc2nnc(N)s2)ccc1C,38.6,"14.6 µM [rising, partial curve]","16.4 µM [rising, partial curve, poor fit]"
COc1cccc(CN2CCC(N(CCc3ccccc3)Cc3ccccc3)CC2)c1OC,-49.8,"13 µM [falling, partial curve]","29.1 µM [falling, single point]"

SMILES,cell number change [%],AC50 [1],AC50 [2]
CCC(=O)N1c2ccccc2NC2=C(C(=O)CCC2)C1c1ccccc1 (centres undefined),32.9,–,"32.6 µM [rising, single point]"
O=C(O)CNC(=O)c1ccc(NC(=O)/C(=C/c2ccccc2)NC(=O)c2ccco2)cc1,-24.8,"29.1 µM [rising, single point]",–
CC(=O)N1CCc2cc(C(=O)CN3CCN(c4ccccc4F)CC3)ccc21,-2.97,"29.1 µM [rising, single point]",–
CCOC(=O)C1=C(COC(=O)CCc2ccc(F)cc2)NC(=O)NC1C (centres undefined),-2.07,"1.84 µM [rising, full curve, poor fit]",–
Cn1c(SCc2nc3ccccc3s2)nnc1-c1ccc2c(c1)OCO2,2.63,"0.326 µM [rising, full curve, poor fit]",–
Fc1ccc(/C=N/Nc2nc3ccccc3[nH]2)cc1F,-16.1,"9.2 µM [falling, single point]",–
Cc1ccc(OCCNC(=O)c2cc(C(=O)NCCOc3ccc(C)cc3)cc([N+](=O)[O-])c2)cc1,-17,"6.51 µM [rising, single point]","6.51 µM [rising, single point]"
CCC(C)NC(=O)C1CCN(C(=O)c2ccccc2)CC1 (centres undefined),44.4,"0.103 µM [rising, full curve, poor fit]","0.206 µM [rising, full curve, poor fit]"
COc1ccc(NC(=O)Nc2nnc(-c3ccncc3)s2)cc1,56.8,–,"18.4 µM [rising, single point]"
Fc1ccc(F)c(CNc2ncnc3cc(Cl)ccc23)c1,-45.7,"29.1 µM [falling, single point]","29.1 µM [falling, single point]"
O=C(c1sc2ccccc2c1Cl)N1CCN(c2ncccn2)CC1,42.6,"29.1 µM [rising, partial curve, poor fit]","7.31 µM [rising, partial curve]"
CN(Cc1ccccn1)C(=O)C1CCC(=O)N(CCc2ccc(Cl)cc2)C1 (centres undefined),31.7,–,"29.1 µM [rising, single point]"
CCOC(=O)c1sc(N2C(=O)C(O)=C(C(=O)c3ccco3)C2c2ccco2)nc1C (centres undefined),19.1,"6.51 µM [falling, single point]",–
CC1CC(C)CN(C(=O)COC(=O)CNC(=O)C23CC4CC(CC(C4)C2)C3)C1 (centres undefined),5,–,–
Cc1nnc(SCC(=O)NC(=O)NCc2ccco2)s1,–,"0.116 µM [falling, full curve]",–
O=C(CCc1nc2ccccc2c(=O)[nH]1)Nc1cc(Cl)ccc1N1CCCC1,-0.645,"6.51 µM [falling, single point]",–
Cc1ccc(-c2c[n+](CC(=O)Nc3ccc(C)cc3C)c3n2CCC3)cc1,31.7,"2.06 µM [rising, partial curve, poor fit]","0.231 µM [rising, full curve, poor fit]"
CCCCNC(=O)c1ccc2c(c1)C(=O)N(Cc1ccncc1)C2=O,-1.42,–,–
Cc1ccc(O)c(C(=O)CC(=O)c2ccc(Cl)cc2)c1,-61.8,"20.6 µM [falling, single point]","29.1 µM [falling, single point]"

# Single records (already shown). Values in the order: cell number change [%]	AC50 [1]	AC50 [2]
# `CCOC(=O)c1c(NC(=O)Cn2nnc(-c3ccccc3Cl)n2)sc(C)c1C` in the list: 1.2	6.51 µM [rising, single point]	–
# `O=C(O)CNC(=O)c1ccc(NC(=O)/C(=C/c2ccccc2)NC(=O)c2ccco2)cc1` in the list: -24.8	29.1 µM [rising, single point]	–
# `S=c1[nH]nc(-c2ccco2)n1-c1cccc2ccccc12` in the list: -61.4	–	29.1 µM [falling, single point]
